Laboratory results: US7700636B2, “Thiadiazole compounds and methods of use” (Amgen Inc., priority 2004, dated 2010)
Some of these results come from one statement about several compounds together.

Chains of the proteins cited; added tags and fusions are not shown. Residues count along the entry.
UniProt P31749, 118-480 limits assumed: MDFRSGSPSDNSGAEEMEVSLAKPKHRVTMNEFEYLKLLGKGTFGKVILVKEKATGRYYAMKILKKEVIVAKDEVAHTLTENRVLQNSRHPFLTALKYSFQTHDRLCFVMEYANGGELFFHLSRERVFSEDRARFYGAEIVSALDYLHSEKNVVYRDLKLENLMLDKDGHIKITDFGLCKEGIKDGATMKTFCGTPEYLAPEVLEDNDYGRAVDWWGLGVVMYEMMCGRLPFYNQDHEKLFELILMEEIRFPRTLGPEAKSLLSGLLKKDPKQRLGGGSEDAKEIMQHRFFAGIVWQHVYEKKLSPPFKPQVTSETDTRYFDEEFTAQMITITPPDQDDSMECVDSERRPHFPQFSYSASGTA

What was measured:
PKBα = molecular target: T1, PKBα (Homo sapiens, UniProt P31749); test: PKB kinase assay (P33-labeled ATP, peptide substrate, filter plate); type: biochemical; details: full length PKBα and PKBα kinase domain with pleckstrin domain (amino acids 1-117) deleted
T1 construct: fused on or other part: Probably a His tag on the vendor's proteins

PKB = PKB activity in cells: phosphorylation of PKB substrates FKHRL1, GSK3a/b and Tuberin by immunoassay in MDA-MB-468; type: cell-based; details: PTEN null human breast tumor cell line MDA-MB-468; phospho-FKHRL1, GSK3a/b, Tuberin; read-out: PKB kinase activity IC50 in cells

`Clc1ccc(C[C@H]2CN(c3nnc(-c4ccc5cnccc5c4)s3)CCN2)cc1` [Example 1, 6-(5-((S)-3-(4-chlorobenzyl)-piperazin-1-yl)-1,3,4-thiadiazol-2-yl)-isoquinoline] was tested. Which IC50 (PKBα) did it give?
Its IC50 is < 10 µM.

What about the IC50 (PKB) of the same compound?
Its IC50 is < 10 µM.

Which IC50 (PKBα) does the source give for `Cc1n[nH]c2ccc(-c3nnc(NCC(N)CC4CCOCC4)s3)cc12` (centres unmarked) [Example 6, 2-[5-(3-Methyl-1H-indazol-5-yl)-[1,3,4]thiadiazol-2-ylamino]-1-(tetrahydro-pyran-4-ylmethyl)-ethyl-ammonium trifluoro-acetate] here?
Its IC50 is < 10 µM.

What about the IC50 (PKB) of the same compound?
The IC50 was < 10 µM.

For `Cc1n[nH]c2ccc(-c3nnc(NCC4NCCCC4c4ccccc4)s3)cc12` (centres unmarked) [Example 171, 5-(3-methyl-Hl-indazol-5-yl)-N-((3-phenylpiperidin-2-yl)methyl)-1,3,4-thiadiazol-2-amine], which IC50 (PKBα) is on record?
The IC50 was < 10 µM.

What about the IC50 (PKB) of the same compound?
The IC50 was < 10 µM.

Which results are given for `N[C@H](CNc1nnc(-c2ccc3cnccc3n2)s1)Cc1ccc(C(F)(F)F)cc1` [Example 169, N-((S)-2-amino-3-(4-(trifluoromethyl)phenyl)propyl)-5-(1,6-naphthyridin-2-yl)-1,3,4-thiadiazol-2-amine]?
IC50 (PKBα): < 10 µM; IC50 (PKB): < 10 µM

How did the IC50 (PKBα) turn out when `Cc1n[nH]c2ccc(-c3nnc(NC[C@H](N)Cc4ccccc4Cl)s3)cc12` [Example 38, (R)-3-(2-Chloro-phenyl)-N-[5-(3-methyl-1H-indazol-5-yl)-[1,3,4]thiadiazol-2-yl]-propane-1,2-diamine] was run?
Its IC50 is < 10 µM.

And the IC50 (PKB)?
The IC50 was < 10 µM.

What does the source list for `Cc1n[nH]c2ccc(-c3nnc(NCC4(N)CCc5ccccc5C4)s3)cc12` (centres unmarked) [Example 14, (2-Amino-1,2,3,4-tetrahydro-naphthalen-2-ylmethyl)-[5-(3-methyl-1H-indazol-5-yl)-[1,3,4]thiadiazol-2-yl]-amine]?
IC50 (PKBα): < 10 µM; IC50 (PKB): < 10 µM

How did the IC50 (PKBα) turn out when `Cc1n[nH]c2ccc(-c3nnc(NC[C@@H](N)Cc4ccc(C(F)(F)F)cc4)s3)cc12` [Example 23, (S)-2-[5-(3-Methyl-1H-indazol-5-yl)-[1,3,4]thiadiazol-2-ylamino]-1-(4-trifluoromethyl-benzyl)-ethyl-ammonium chloride] was run?
Its IC50 is < 10 µM.

What about the IC50 (PKB) of the same compound?
Its IC50 is < 10 µM.

Which IC50 (PKBα) does the source give for `Cc1n[nH]c2ccc(-c3nnc(NC[C@@H](N)c4ccccc4)s3)cc12` [Example 30, (S)-2-[5-(3-Methyl-1H-indazol-5-yl)-[1,3,4]thiadiazol-2-ylamino]-1-phenyl-ethyl-ammonium chloride] here?
Its IC50 is < 10 µM.

And the IC50 (PKB)?
Its IC50 is < 10 µM.

For `N[C@H](CNc1nnc(-c2ccc3[nH]ncc3c2)s1)Cc1cncn1Cc1ccccc1` [Example 77, N-((S)-2-amino-3-(1-benzyl-1H-imidazol-5-yl)propyl)-5-(1H-indazol-5-yl)-1,3,4-thiadiazol-2-amine], which IC50 (PKBα) is on record?
The IC50 was < 10 µM.

What about the IC50 (PKB) of the same compound?
The IC50 was < 10 µM.

`CN[C@H](CNc1nnc(-c2ccc3[nH]nc(C)c3c2)s1)Cc1ccccc1` [Example 7, (S)-{1-Benzyl-2-[5-(3-methyl-1H-indazol-5-yl)-[1,3,4]thiadiazol-2-ylamino]-ethyl}-methyl-ammonium trifluoro-acetate] was tested. Which IC50 (PKBα) did it give?
Its IC50 is < 10 µM.

What about the IC50 (PKB) of the same compound?
Its IC50 is < 10 µM.

For `Cc1cc(-c2nnc(NC[C@@H](N)Cc3ccc(Cl)cc3)s2)cc2cn[nH]c12` [Example 104, N-((S)-2-amino-3-(4-chlorophenyl)propyl)-5-(7-methyl-1H-indazol-5-yl)-1,3,4-thiadiazol-2-amine], which IC50 (PKBα) is on record?
The IC50 was < 10 µM.

What about the IC50 (PKB) of the same compound?
Its IC50 is < 10 µM.

What does the source list for `COc1ccc(C[C@H](N)CNc2nnc(-c3ccc4[nH]ncc4c3)s2)cc1` [Example 84, N-((S)-2-amino-3-(4-methoxyphenyl)propyl)-5-(1H-indazol-5-yl)-1,3,4-thiadiazol-2-amine]?
IC50 (PKBα): < 10 µM; IC50 (PKB): < 10 µM

How did the IC50 (PKBα) turn out when `N[C@H](CNc1nnc(-c2cc3cn[nH]c3cc2F)s1)Cc1ccc(Cl)cc1Cl` [Example 89, N-((S)-2-amino-3-(2,4-dichlorophenyl)propyl)-5-(6-fluoro-1H-indazol-5-yl)-1,3,4-thiadiazol-2-amine] was run?
The IC50 was < 10 µM.

What about the IC50 (PKB) of the same compound?
The IC50 was < 10 µM.

What does the source list for `Cc1n[nH]c2ccc(-c3nnc(NCC(O)Cc4ccccc4)s3)cc12` (centres unmarked) [Example 20, (2-Hydroxy-3-phenyl-propyl)-[5-(3-methyl-1H-indazol-5-yl)-[1,3,4]thiadiazol-2-yl]-ammonium trifluoro-acetate]?
IC50 (PKBα): < 10 µM; IC50 (PKB): < 10 µM

With `Cc1ccc(C[C@H](N)CNc2nnc(-c3ccc4[nH]nc(C)c4c3)s2)cc1` [Example 65, N-((S)-2-amino-3-p-tolylpropyl)-5-(3-methyl-1H-indazol-5-yl)-1,3,4-thiadiazol-2-amine] as the compound, how does the IC50 (PKBα) read?
The IC50 was < 10 µM.

And the IC50 (PKB)?
Its IC50 is < 10 µM.

How did the IC50 (PKBα) turn out when `c1ccc(CO[C@H]2CN[C@H](CNc3nnc(-c4ccc5cnccc5c4)s3)C2)cc1` [Example 164, N-(((2S,4R)-4-(benzyloxy)pyrrolidin-2-yl)methyl)-5-(isoquinolin-6-yl)-1,3,4-thiadiazol-2-amine] was run?
Its IC50 is < 10 µM.

And the IC50 (PKB)?
Its IC50 is < 10 µM.

What does the source list for `N[C@@H](CNc1nnc(-c2ccc3[nH]ncc3c2)s1)Cc1ccccc1Br` [Example 87, N-((R)-2-amino-3-(2-bromophenyl)propyl)-5-(1H-indazol-5-yl)-1,3,4-thiadiazol-2-amine]?
IC50 (PKBα): < 10 µM; IC50 (PKB): < 10 µM

What does the source list for `Cc1c(-c2nnc(N)s2)ccc2[nH]ncc12` [Example 113, 5-(4-methyl-1H-indazol-5-yl)-1,3,4-thiadiazol-2-amine]?
IC50 (PKBα): < 10 µM; IC50 (PKB): < 10 µM

Which IC50 (PKBα) does the source give for `N[C@H](CNc1nnc(-c2ccc3cnccc3c2)s1)Cc1ccc(C(F)(F)F)cc1F` [Example 167, N-((S)-2-amino-3-(2-fluoro-4-(trifluoromethyl)phenyl)propyl)-5-(isoquinolin-6-yl)-1,3,4-thiadiazol-2-amine] here?
Its IC50 is < 10 µM.

What about the IC50 (PKB) of the same compound?
The IC50 was < 10 µM.

Which IC50 (PKBα) does the source give for `CC(C)(C)c1ccc(C[C@H](N)CNc2nnc(-c3ccc4[nH]ncc4c3)s2)cc1` [Example 82, N-((S)-2-amino-3-(4-tert-butylphenyl)propyl)-5-(1H-indazol-5-yl)-1,3,4-thiadiazol-2-amine] here?
The IC50 was < 10 µM.

What about the IC50 (PKB) of the same compound?
The IC50 was < 10 µM.

With `Cc1n[nH]c2ccc(-c3nnc(NC[C@@H](N)[C@@H](C)c4ccccc4)s3)cc12` [Example 22, (1S,2S)-1-{[5-(3-Methyl-1H-indazol-5-yl)-[1,3,4]thiadiazol-2-ylamino]-methyl}-2-phenyl-propyl-ammonium chloride] as the compound, how does the IC50 (PKBα) read?
The IC50 was < 10 µM.

And the IC50 (PKB)?
The IC50 was < 10 µM.

Which IC50 (PKBα) does the source give for `Cc1n[nH]c2ccc(-c3nnc(NC[C@@H](N)Cc4ccccc4Cl)s3)cc12` [Example 35, (S)-3-(2-Chloro-phenyl)-N-[5-(3-methyl-1H-indazol-5-yl)-[1,3,4]thiadiazol-2-yl]-propane-1,2-diamine] here?
The IC50 was < 10 µM.

What about the IC50 (PKB) of the same compound?
Its IC50 is < 10 µM.

What does the source list for `Cc1cc(-c2nnc(NC[C@@H](N)Cc3ccc(Cl)cc3Cl)s2)cc2cn[nH]c12` [Example 105, N-((S)-2-amino-3-(2,4-dichlorophenyl)propyl)-5-(7-methyl-1H-indazol-5-yl)-1,3,4-thiadiazol-2-amine]?
IC50 (PKBα): < 10 µM; IC50 (PKB): < 10 µM

For `Cc1n[nH]c2ccc(-c3nnc(NC[C@@H](N)Cc4ccccn4)s3)cc12` [Example 17, (S)-N^1-[5-(3-Methyl-1H-indazol-5-yl)-[1,3,4]thiadiazol-2-yl]-3-pyridin-2-yl-propane-1,2-diamine], which IC50 (PKBα) is on record?
Its IC50 is < 10 µM.

What about the IC50 (PKB) of the same compound?
The IC50 was < 10 µM.

Which results are given for `Cc1cc2[nH]ncc2cc1-c1nnc(NC[C@@H](N)CC(C)C)s1` [Example 97, N-((S)-2-amino-4-methylphenyl)-5-(6-methyl-1H-indazol-5-yl)-1,3,4-thiadiazol-2-amine]?
IC50 (PKBα): < 10 µM; IC50 (PKB): < 10 µM

How did the IC50 (PKBα) turn out when `Nc1nnc(-c2cc3cn[nH]c3cn2)s1` [Example 108, 5-(1H-pyrazolo[3,4-c]pyridin-5-yl)-1,3,4-thiadiazol-2-amine] was run?
Its IC50 is < 10 µM.

And the IC50 (PKB)?
The IC50 was < 10 µM.

What does the source list for `FC(F)(F)c1ccc([C@@H]2CNC[C@H]2CNc2nnc(-c3ccc4cnccc4c3)s2)cc1` [Example 165, 5-(isoquinolin-6-yl)-N-(((3S,4R)-4-(4-(trifluoromethyl)phenyl)pyrrolidin-3-yl)methyl)-1,3,4-thiadiazol-2-amine]?
IC50 (PKBα): < 10 µM; IC50 (PKB): < 10 µM

Which results are given for `N[C@H](CNc1nnc(-c2ccc3[nH]ncc3c2)s1)Cc1ccc(Cl)cc1Cl` [Example 83, N-((S)-2-amino-3-(2,4-dichlorophenyl)propyl)-5-(1H-indazol-5-yl)-1,3,4-thiadiazol-2-amine]?
IC50 (PKBα): < 10 µM; IC50 (PKB): < 10 µM

`N[C@H](CNc1nnc(-c2ccc3[nH]ncc3c2)s1)Cc1ccc(F)cc1` [Example 156, N-((S)-2-amino-3-(4-fluorophenyl)propyl)-5-(1H-indazol-5-yl)-1,3,4-thiadiazol-2-amine] was tested. Which IC50 (PKBα) did it give?
Its IC50 is < 10 µM.

What about the IC50 (PKB) of the same compound?
Its IC50 is < 10 µM.

`Cc1n[nH]c2ccc(-c3nnc(NC[C@@H](N)Cc4ccc5ccccc5c4)s3)cc12` [Example 67, N-((S)-2-amino-3-(naphthalen-2-yl)propyl)-5-(3-methyl-1H-indazol-5-yl)-1,3,4-thiadiazol-2-amine] was tested. Which IC50 (PKBα) did it give?
The IC50 was < 10 µM.

And the IC50 (PKB)?
Its IC50 is < 10 µM.

How did the IC50 (PKBα) turn out when `Cc1cccc(C[C@H](N)CNc2nnc(-c3ccc4[nH]ncc4c3)s2)c1` [Example 78, N-((S)-2-amino-3-m-tolylpropyl)-5-(1H-indazol-5-yl)-1,3,4-thiadiazol-2-amine] was run?
Its IC50 is < 10 µM.

What about the IC50 (PKB) of the same compound?
The IC50 was < 10 µM.

How did the IC50 (PKBα) turn out when `Cc1n[nH]c2ccc(-c3nnc(NCC(Cc4cccc(C(F)(F)F)c4)NC4CCCCC4)s3)cc12` (centres unmarked) [Example 139, N-(1-(5-(3-methyl-1H-indazol-5-yl)-1,3,4-thiadiazol-2-ylamino)-3-(3-(trifluoromethyl)phenyl)propan-2-yl)cyclohexanaminium chloride] was run?
The IC50 was < 10 µM.

And the IC50 (PKB)?
Its IC50 is < 10 µM.

For `Cc1n[nH]c2ccc(-c3nnc(NC[C@@H]4CCCN4)s3)cc12` [Example 60, 5-(3-methyl-1H-indazol-5-yl)-N-((S)-pyrolidin-2-ylmethyl)-1,3,4-thiadiazol-2-amine], which IC50 (PKBα) is on record?
The IC50 was < 10 µM.

And the IC50 (PKB)?
The IC50 was < 10 µM.

How did the IC50 (PKBα) turn out when `N[C@H](CNc1nnc(-c2cc(Cl)c3[nH]ncc3c2)s1)Cc1ccc(Cl)cc1` [Example 107, N-((S)-2-amino-3-(4-chlorophenyl)propyl)-5-(7-chloro-1H-indazol-5-yl)-1,3,4-thiadiazol-2-amine] was run?
Its IC50 is < 10 µM.

And the IC50 (PKB)?
Its IC50 is < 10 µM.
